Laboratory results: patent US20190388513A1, “OIL BASED FORMULATIONS FOR SUBLINGUAL AND BUCCAL DELIVERY” (BIOLINGUS IP LLC, priority 2017, published 2019)
At least one structure is not confirmed: it was looked up by name or label, or the drawing left a doubt.

Tested on: diabetic mice
Test: Sublingual liraglutide and sublingual insulin aspart/insulin glargine: blood glucose in diabetic mice (Example 6)
Type: in vivo, mice (strain C57/BL6)
Conditions: sublingual 150 μg liraglutide in oil formulation (CSSR6d), versus SC liraglutide 50 μg in dd water

Structure (SMILES): CCCCCCCCCCCCCCCC(=O)N[C@@H](CCC(=O)NCCCC[C@H](NC(=O)[C@H](C)NC(=O)[C@H](C)NC(=O)[C@H](CCC(N)=O)NC(=O)CNC(=O)[C@H](CCC(=O)O)NC(=O)[C@H](CC(C)C)NC(=O)[C@H](Cc1ccc(O)cc1)NC(=O)[C@H](CO)NC(=O)[C@H](CO)NC(=O)[C@@H](NC(=O)[C@H](CC(=O)O)NC(=O)[C@H](CO)NC(=O)[C@@H](NC(=O)[C@H](Cc1ccccc1)NC(=O)[C@@H](NC(=O)CNC(=O)[C@H](CCC(=O)O)NC(=O)[C@H](C)NC(=O)[C@@H](N)Cc1cnc[nH]1)[C@@H](C)O)[C@@H](C)O)C(C)C)C(=O)N[C@@H](CCC(=O)O)C(=O)N[C@@H](Cc1ccccc1)C(=O)N[C@H](C(=O)N[C@@H](C)C(=O)N[C@@H](Cc1c[nH]c2ccccc12)C(=O)N[C@@H](CC(C)C)C(=O)N[C@H](C(=O)N[C@@H](CCCNC(=N)N)C(=O)NCC(=O)N[C@@H](CCCNC(=N)N)C(=O)NCC(=O)O)C(C)C)[C@@H](C)CC)C(=O)O [liraglutide]
- Blood glucose levels / AUC0-720min, compared with subcutaneous delivery of liraglutide: comparable to subcutaneous delivery liraglutide
